# In PMC9998662:
# These are yes or no findings as the source states them, for the method shown. Binding seen in cells or lysates may run through a third protein. Some results given as binding are weak or reduced against the parent protein; the word gives no strength. Sequences can lack the tags named with a protein.
# B1: full-length EVL (overexpressed in HEK293T) (protein, UniProt P70429 1-414)
# chain: MSEQSICQARASVMVYDDTSKKWVPIKPGQQGFSRINIYHNTASSTFRVVGVKLQDQQVVINYSIVKGLKYNQATPTFHQWRDARQVYGLNFASKEEATTFSNAMLFALNIMNSQEGGPSTQRQVQNGPSPEEMDIQRRQVMEQQHRQESLERRISATGPILPPGHPSSAASTTLSCSGPPPPPPPPVPPPPTGSTPPPPPPLPAGGAQGTNHDESSASGLAAALAGAKLRRVQRPEDASGGSSPSGTSKSDANRASSGGGGGGLMEEMNKLLAKRRKAASQTDKPADRKEDESQTEDPSTSPSPGTRATSQPPNSSEAGRKPWERSNSVEKPVSSLLSRTPSVAKSPEAKSPLQSQPHSRVKPAGSVNDVGLDALDLDRMKQEILEEVVRELHKVKEEIIDAIRQELSGISTT
# Target: T1, MIM-3xFLAG (Mus musculus) (UniProt Q8R1S4)
# T1 sequence: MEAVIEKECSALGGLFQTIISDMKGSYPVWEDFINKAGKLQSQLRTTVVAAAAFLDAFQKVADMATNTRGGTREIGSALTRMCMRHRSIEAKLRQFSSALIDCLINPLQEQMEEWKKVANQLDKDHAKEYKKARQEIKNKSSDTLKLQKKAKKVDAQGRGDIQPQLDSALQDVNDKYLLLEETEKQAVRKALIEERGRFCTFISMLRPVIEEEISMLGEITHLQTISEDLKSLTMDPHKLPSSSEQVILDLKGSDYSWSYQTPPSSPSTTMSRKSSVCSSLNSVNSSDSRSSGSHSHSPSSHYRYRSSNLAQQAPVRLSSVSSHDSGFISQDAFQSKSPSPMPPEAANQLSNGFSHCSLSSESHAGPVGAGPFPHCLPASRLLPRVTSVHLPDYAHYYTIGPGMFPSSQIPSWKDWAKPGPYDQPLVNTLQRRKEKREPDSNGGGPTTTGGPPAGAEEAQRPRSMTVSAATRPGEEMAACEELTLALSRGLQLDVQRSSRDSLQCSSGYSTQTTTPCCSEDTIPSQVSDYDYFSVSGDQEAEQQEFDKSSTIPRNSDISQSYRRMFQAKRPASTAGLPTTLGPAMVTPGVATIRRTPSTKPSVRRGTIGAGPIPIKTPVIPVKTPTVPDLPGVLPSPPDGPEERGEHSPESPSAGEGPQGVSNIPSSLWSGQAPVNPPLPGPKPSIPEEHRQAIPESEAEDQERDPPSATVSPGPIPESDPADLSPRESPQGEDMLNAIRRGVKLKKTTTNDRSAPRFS
# Assay: co-IP; HEK293T co-transfected with MIM-3xFLAG and EVL constructs; IP with anti-FLAG antibody, Protein A/G beads; IP buffer 10% glycerol, 1% NP-40, 50 mM Tris pH 7.5, 200 mM NaCl, 2 mM MgCl2; overnight at 4°C; western blot
binder,measurement,value
B1,binding,binds
